No constants are given. Whether binding was seen depends on the method and setting. In cells and extracts the contact can be indirect. Some binding calls cover weakened binding; strength is not graded here. Blank lines part the entries; values can stand above or below the substance they belong to.
How the values were obtained:
[1] = target: Mitochondrial calcium uniporter (MCU) (human (endogenous in HepG2)) (UniProt Q8NE86); assay: co-IP; MCU, HA or isotype IgG antibody (5 µg) on protein A/G magnetic beads, incubated with 0.5-1.0 mg protein from HA-VDAC1-overexpressing HepG2 cells (SDS-free lysis buffer) for 12-18 h at 4 °C; immunoblot; cells treated with siMCU or siVDAC1, with or without Cd exposure
VDAC1-ECFP = VDAC1-ECFP (UniProt P21796); assay: FRET or BRET; acceptor photobleaching FRET in living HepG2 cells cotransfected with VDAC1-ECFP (donor) and MCU-EYFP (acceptor) for 48 h; EYFP bleached at 514 nm; efficiency normalized to ECFP+MCU-EYFP
[2] = target: HA-VDAC1 (voltage-dependent anion-selective channel protein 1 fused with an HA tag) (human) (UniProt P21796); assay: co-IP; MCU, HA or isotype IgG antibody (5 µg) on protein A/G magnetic beads, incubated with 0.5-1.0 mg protein from HA-VDAC1-overexpressing HepG2 cells (SDS-free lysis buffer) for 12-18 h at 4 °C; immunoblot; cells treated with siMCU or siVDAC1, with or without Cd exposure

Sequences of proteins named here, by UniProt entry; tags and fusion partners are left off. Residues count along the entry.
UniProt Q8NE86, residues 51-351: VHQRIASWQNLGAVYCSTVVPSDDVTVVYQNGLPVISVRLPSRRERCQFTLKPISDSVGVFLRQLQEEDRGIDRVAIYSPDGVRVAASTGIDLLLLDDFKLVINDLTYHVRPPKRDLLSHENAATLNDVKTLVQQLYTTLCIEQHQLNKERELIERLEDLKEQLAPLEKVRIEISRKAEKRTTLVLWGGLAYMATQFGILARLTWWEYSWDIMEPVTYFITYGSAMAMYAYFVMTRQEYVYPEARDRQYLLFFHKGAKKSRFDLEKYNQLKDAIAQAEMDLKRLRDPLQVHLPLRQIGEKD
UniProt P21796: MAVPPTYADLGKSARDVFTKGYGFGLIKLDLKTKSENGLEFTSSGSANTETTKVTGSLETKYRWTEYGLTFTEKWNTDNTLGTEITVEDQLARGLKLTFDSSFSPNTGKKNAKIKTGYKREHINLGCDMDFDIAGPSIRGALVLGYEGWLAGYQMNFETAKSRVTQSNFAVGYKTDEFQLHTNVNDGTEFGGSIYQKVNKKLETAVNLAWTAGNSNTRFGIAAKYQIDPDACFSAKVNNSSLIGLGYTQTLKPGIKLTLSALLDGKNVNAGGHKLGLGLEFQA

- binding [1]: binds
Substance: HA-VDAC1 (voltage-dependent anion-selective channel protein 1 fused with an HA tag) (from UniProt P21796 1-283)

- binding (VDAC1-ECFP): binds
Substance: MCU-EYFP (from UniProt Q8NE86 51-351)

- binding [2]: binds
Substance: Mitochondrial calcium uniporter (MCU) (from UniProt Q8NE86 51-351)

Reference: publication PMC9982555
